Each structure is given as a SMILES string. Hit rate of the full screen: of about 320,000 compounds, about 9,100 (2.8%) were called active. Roughly 3% stayed inconclusive and do not appear here. What follows is the remainder of the data, with few or none of the actives. Where no call is shown, the source filed none.

A short description of this experiment: qHTS Assay for Rab9 Promoter Activators. Further: % of control where 0% means no effect; nearly all actives have a fitted effect of over 60% in size. The conditions noted are these: Huh7 Rab9 promoter-luciferase reporter, luminescence, 24 h; at 9.22 µM (top of the series; the call rests on the fitted dose curve and not on this point). The text has this:
NIH Chemical Genomics Center [NCGC] NIH Molecular Libraries Probe Production centers Network [MLPCN] MLPCN Grant: MH089537-01 Assay Submitter (PI): Yiannis A. Ioannou NCGC Assay Overview: Niemann Pick Type C (NPC) is a rare neurodegenerative lipidosis that is characterized by lipid storage in the endosomal/lysosomal system. Treatment modalities for this devastating disease are currently non-existent due to the severe obstacles associated with accessing the central nervous system with proteins or genes (Ioannou, 2000). We have developed a new paradigm, termed "Orphan Receptor Bypass Therapy" (ORByT), to address these disorders. This paradigm posits the existence of endogenous "suppressor" proteins whose expression can dramatically improve LSD pathogenesis. The goal is the identification/discovery of small chemical compounds that can modulate the expression of these proteins and provide a new treatment modality for these devastating disorders. One such protein whose overexpression reverses aspects of the NPC phenotype is Rab9. […]
The Rab9 promoter is cloned in front of the luciferase reporter gene, therefore […] promoter activation results in luciferase expression. […] 7.Read using the luminescence protocol on the ViewLux plate reader (Perkin Elmer).
In general terms: qHTS replaces the single test concentration by a dilution series.
Consider `COc1ccc(C(=O)Nn2c(SCC(=O)N3CCC(C)CC3)nc3ccccc3c2=O)cc1`, for which the activation, negative = inhibition was found to be 62.9%.

`Cc1cc(C)cc(C(=O)NC(CC(N)=O)c2ccc(NCC3CC3)c([N+](=O)[O-])c2)c1` (configuration not stated): the activation, negative = inhibition is -57.6%.

Source of the values: PubChem BioAssay AID485297 (National Center for Advancing Translational Sciences (NCATS), 2010).
